Here are results for one molecule from patent US20230399409A1.

These are yes or no findings as the source states them, for the method shown. Binding calls can cover weak binding; strength is not graded here.

For assay [1], the target named is monkey IL-36R (monkey). Kind of assay: flow cytometry on CHO-K1 cells expressing monkey IL-36R (CHO-K1-cyIL-36R), Median FL2. In general terms: In flow cytometry, cells or beads pass a laser one at a time.
In assay [2] the target is monkey IL-36R (monkey). Kind of assay: flow cytometry on CHO-K1 cells expressing monkey IL-36R.

B1: humanized anti-IL-36R antibody 900527 (antibody, V domains shown)
VH: QVQLVQSGAEVKKPGASVKVSCKASGYTFTSSWMHWAKQAPGQGLEWIGEIHPNSAKTNYNQKFQGRVTMTRDTSISTAYMELSRLRSDDTAVYYCARVDYGKPWFAYWGQGTLVTVSS
VL: QIVLTQSPGTLSLSPGERATLSCRASSSVSSSYLHWYQQKPGQAPRLWIYSTSSRATGIPDRFSGSGSGTDFTLTISRLEPEDFATYYCQQFQSSPLTFGQGTKLEIK
Regarding B1, the binding entry with monkey IL-36R (monkey) [1] and in the assay with monkey IL-36R (monkey) [2] was “binds” in each case.
